Laboratory results as given in PMC6160236, “Disrupted structure and aberrant function of CHIP mediates the loss of motor and cognitive function in preclinical models of SCAR16” (PLoS Genetics, 2018).
Results are given in words; binding and its absence hold for the method and conditions named. For part of these data: Binding seen in cells or lysates may run through a third protein. Some binding calls cover weakened binding; strength is not graded here. Blank lines part the entries; values can stand above or below the substance they belong to.

Sequences of proteins named here, by UniProt entry; tags and fusion partners are left off. A change or cut given only in a name is not applied to a line headed by its entry.
UniProt Q9UNE7: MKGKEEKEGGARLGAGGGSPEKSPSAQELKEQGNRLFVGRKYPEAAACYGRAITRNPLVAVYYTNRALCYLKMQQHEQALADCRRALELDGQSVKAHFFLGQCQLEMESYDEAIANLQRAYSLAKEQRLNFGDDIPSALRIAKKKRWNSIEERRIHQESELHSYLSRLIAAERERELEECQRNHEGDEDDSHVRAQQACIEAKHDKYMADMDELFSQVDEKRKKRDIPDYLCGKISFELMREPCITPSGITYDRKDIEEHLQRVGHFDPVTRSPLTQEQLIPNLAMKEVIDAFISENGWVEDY
UniProt Q9WUD1: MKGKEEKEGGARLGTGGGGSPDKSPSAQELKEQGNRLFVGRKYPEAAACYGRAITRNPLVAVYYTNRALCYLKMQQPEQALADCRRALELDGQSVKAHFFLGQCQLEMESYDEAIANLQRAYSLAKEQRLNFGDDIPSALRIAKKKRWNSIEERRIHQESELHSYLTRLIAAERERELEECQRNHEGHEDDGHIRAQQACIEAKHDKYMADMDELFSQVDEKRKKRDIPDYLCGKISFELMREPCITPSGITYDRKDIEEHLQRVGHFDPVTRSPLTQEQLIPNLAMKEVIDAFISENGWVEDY

What was measured:
[1] = biological target: myc-CHIP-T246M (pcDNA3-mycCHIP-T246M) (human) (UniProt Q9UNE7); assay: co-IP; COS-7 cells co-transfected with HA-WT and Myc-TM; immunoprecipitation with Anti-HA or Anti-Myc affinity gel, immunoblot
[2] = biological target: endogenous mouse CHIP-T246M (murine T247M, M246/M246 mice) (mouse (endogenous in MEFs and mouse tissue)) (UniProt Q9WUD1); assay: native gel or EMSA; blue native PAGE of fresh mouse cerebellum and testes extracts (Native PAGE sample buffer, 1% digitonin), immunoblot for CHIP; recombinant CHIP run as a reference
[3] = biological target: myc-CHIP-T246M (pcDNA3-mycCHIP-T246M) (human) (UniProt Q9UNE7); assay: native gel or EMSA; blue native PAGE (4-16% NativePAGE) of fresh lysates of transfected COS-7 cells, immunoblot with anti-myc
[4] = biological target: HA-CHIP wild type (pcDNA3-HA-CHIP) (human) (UniProt Q9UNE7); assay: co-IP; COS-7 cells co-transfected with HA-WT and Myc-TM; immunoprecipitation with Anti-HA or Anti-Myc affinity gel, immunoblot
[5] = biological target: endogenous mouse CHIP, wild type (T246/T246 mice) (mouse (endogenous in MEFs and mouse tissue)) (UniProt Q9WUD1); assay: native gel or EMSA; blue native PAGE of fresh mouse cerebellum and testes extracts (Native PAGE sample buffer, 1% digitonin), immunoblot for CHIP; recombinant CHIP run as a reference
[6] = biological target: myc-CHIP-H260Q (pcDNA3-mycCHIP-H260Q) (human) (UniProt Q9UNE7); assay: native gel or EMSA; blue native PAGE (4-16% NativePAGE) of fresh lysates of transfected COS-7 cells, immunoblot with anti-myc

binding [1]: binds
Substance: HA-CHIP wild type (pcDNA3-HA-CHIP) (from UniProt Q9UNE7 1-303) (enzyme)

binding [2]: binds
Substance: endogenous mouse CHIP-T246M (murine T247M, M246/M246 mice) (from UniProt Q9WUD1 1-304) (enzyme)

binding [3]: binds
binding [4]: binds
Substance: myc-CHIP-T246M (pcDNA3-mycCHIP-T246M) (from UniProt Q9UNE7 1-303) (enzyme)

binding [5]: binds
Substance: endogenous mouse CHIP, wild type (T246/T246 mice) (from UniProt Q9WUD1 1-304) (enzyme)

binding [6]: binds
Substance: myc-CHIP-H260Q (pcDNA3-mycCHIP-H260Q) (from UniProt Q9UNE7 1-303) (enzyme)
